Reference: patent publication US8410153B2, “Naphthalene isoxazoline invertebrate pest control agents” (E.I. du Pont de Nemours and Company, priority 2007, dated 2013)
Some results were stated once for a whole list of compounds, not compound by compound. For at least one compound, name, drawing or mass did not settle the structure.

What was measured:
Format in all cases: in vivo
[1] = tested on: cat flea (Ctenocephalides felis); experiment: Test I: control of cat flea on orally dosed mouse, fleas applied two hours after dosing; conditions: CD-1 mouse, oral 10 mg/kg, evaluated 48 hours after flea application
[2] = tested on: green peach aphid (Myzus persicae); experiment: Test F: control of green peach aphid on radish plant, contact and/or systemic; conditions: sprayed at 250 ppm; held 6 days
[3] = tested on: silverleaf whitefly (Bemisia tabaci); experiment: Test H: control of silverleaf whitefly nymphs on cotton plant; conditions: sprayed at 250 ppm; held 6 days; 2nd and 3rd instar nymphs
[4] = tested on: cat flea (Ctenocephalides felis); experiment: Test J: control of cat flea on orally dosed mouse, fleas applied twenty-four hours after dosing; conditions: CD-1 mouse, oral 10 mg/kg, evaluated 48 hours after flea application
[5] = tested on: potato leafhopper (Empoasca fabae); experiment: Test C: control of potato leafhopper on Soleil bean plant, contact and/or systemic; conditions: held 6 days
[6] = tested on: corn planthopper (Peregrinus maidis); experiment: Test D: control of corn planthopper on maize plant, contact and/or systemic; conditions: sprayed at 250 ppm; held 6 days
[7] = tested on: cotton melon aphid (Aphis gossypii); experiment: Test G: control of cotton melon aphid on cotton plant, contact and/or systemic; conditions: sprayed at 250 ppm
[8] = tested on: cat flea (Ctenocephalides felis); experiment: Test L: control of cat flea, treated filter paper in tube; conditions: 20 μL of 500 ppm solution on filter paper; evaluated 48 hours later

SMILES	flea mortality [1]	mortality [2]	mortality [3]	flea mortality [4]	control efficacy: mortality ([5]; sprayed at 50 ppm) [%]	control efficacy: mortality ([5]; sprayed at 250 ppm) [%]	mortality [6]	mortality [7]	flea mortality [8]
CCCNC(=O)C(C)NC(=O)c1ccc(C2=NOC(c3cc(Cl)cc(C(F)(F)F)c3)(C(F)(F)F)C2)c2ccccc12 (mixture of isomers) [Compound 108]	at least 50%	at least 80%	at least 80%	at least 50%	≥ 80	≥ 80	at least 80%	at least 80%	
O=C(CNC(=O)c1ccc(C2=NOC(c3cc(Cl)c(Cl)c(Cl)c3)(C(F)(F)F)C2)c2ccccc12)NCC(F)(F)F (centres unmarked) [Compound 19]	at least 50%	at least 80%		at least 50%	≥ 80	≥ 80		at least 80%	at least 50%
CCNC(=O)CNC(=O)c1ccc(C2=NOC(c3cc(Cl)cc(C(F)(F)F)c3)(C(F)(F)F)C2)c2ccccc12 (centres unmarked) [Compound 119]		at least 80%	at least 80%		≥ 80	≥ 80	at least 80%	at least 80%	
CCNC(=O)C(C)NC(=O)c1ccc(C2=NOC(c3cc(F)cc(C(F)(F)F)c3)(C(F)(F)F)C2)c2ccccc12 (mixture of isomers) [Compound 137]	at least 50%	at least 80%	at least 80%	at least 50%	≥ 80		at least 80%	at least 80%	
CC(NC(=O)c1ccc(C2=NOC(c3cc(Br)cc(C(F)(F)F)c3)(C(F)(F)F)C2)c2ccccc12)C(=O)NCC(F)(F)F (mixture of isomers) [Compound 140]	at least 50%	at least 80%	at least 80%	at least 50%	≥ 80		at least 80%		
CCNC(=O)CNC(=O)c1ccc(C2=NOC(c3cc(Cl)cc(Cl)c3)(C(F)(F)F)C2)c2ccccc12 (centres unmarked) [Compound 8]	at least 50%	at least 80%	at least 80%		≥ 80	≥ 80		at least 80%	at least 50%
O=C(CNC(=O)c1ccc(C2=NOC(c3cc(Cl)cc(Cl)c3)(C(F)(F)F)C2)c2ccccc12)NCCF (centres unmarked) [Compound 12]	at least 50%	at least 80%		at least 50%	≥ 80	≥ 80			at least 50%
O=C(CNC(=O)c1ccc(C2=NOC(c3cccc(C(F)(F)F)c3)(C(F)(F)F)C2)c2ccccc12)NCC(F)(F)F (racemic) [Compound 35]	at least 50%	at least 80%	at least 80%	at least 50%	≥ 80	≥ 80			at least 50%
CSCCNC(=O)c1ccc(C2=NOC(c3cc(Cl)cc(C(F)(F)F)c3)(C(F)(F)F)C2)c2ccccc12 (centres unmarked) [Compound 65]	at least 50%	at least 80%	at least 80%	at least 50%	≥ 80	≥ 80	at least 80%	at least 80%	
CSCCNC(=O)c1ccc(C2=NOC(c3cccc(C(F)(F)F)c3)(C(F)(F)F)C2)c2ccccc12 (racemic) [Compound 34]	at least 50%	at least 80%		at least 50%	≥ 80	≥ 80		at least 80%	at least 50%
CSCCNC(=O)c1ccc(C2=NOC(c3cc(Br)cc(C(F)(F)F)c3)(C(F)(F)F)C2)c2ccccc12 (racemic) [Compound 50]	at least 50%	at least 80%		at least 50%	≥ 80	≥ 80	at least 80%	at least 80%	
CNC(=O)CNC(=O)c1ccc(C2=NOC(c3cc(C(F)(F)F)cc(C(F)(F)F)c3)(C(F)(F)F)C2)c2ccccc12 (centres unmarked) [Compound 105]	at least 50%	at least 80%		at least 50%	≥ 80	≥ 80	at least 80%		
CC(O)CNC(=O)c1ccc(C2=NOC(c3cc(C(F)(F)F)cc(C(F)(F)F)c3)(C(F)(F)F)C2)c2ccccc12 (centres unmarked) [Compound 67]	at least 50%	at least 80%	at least 80%			≥ 80	at least 80%	at least 80%	
CCNC(=O)C(C)NC(=O)c1ccc(C2=NOC(c3cc(Cl)cc(C(F)(F)F)c3)(C(F)(F)F)C2)c2ccccc12 (mixture of isomers) [Compound 110]	at least 50%	at least 80%	at least 80%	at least 50%	≥ 80	≥ 80	at least 80%	at least 80%	
CC(C)NC(=O)C(C)NC(=O)c1ccc(C2=NOC(c3cc(Cl)cc(Cl)c3)(C(F)(F)F)C2)c2ccccc12 (mixture of isomers) [Compound 33]		at least 80%	at least 80%		≥ 80	≥ 80	at least 80%	at least 80%	
CC(CO)NC(=O)c1ccc(C2=NOC(c3cc(C(F)(F)F)cc(C(F)(F)F)c3)(C(F)(F)F)C2)c2ccccc12 (centres unmarked) [Compound 68]		at least 80%	at least 80%	at least 50%		≥ 80	at least 80%	at least 80%	
CC(NC(=O)c1ccc(C2=NOC(c3cc(F)cc(C(F)(F)F)c3)(C(F)(F)F)C2)c2ccccc12)C(=O)NCC(F)(F)F (mixture of isomers) [Compound 139]	at least 50%	at least 80%	at least 80%		≥ 80		at least 80%	at least 80%	
CNC(=O)C(C)NC(=O)c1ccc(C2=NOC(c3cc(F)cc(C(F)(F)F)c3)(C(F)(F)F)C2)c2ccccc12 (mixture of isomers) [Compound 138]	at least 50%	at least 80%		at least 50%	≥ 80		at least 80%	at least 80%	
CNC(=O)C(C)NC(=O)c1ccc(C2=NOC(c3cc(C(F)(F)F)cc(C(F)(F)F)c3)(C(F)(F)F)C2)c2ccccc12 (mixture of isomers) [Compound 95]							at least 80%	at least 80%	
O=C(CNC(=O)c1ccc(C2=NOC(c3cc(Cl)cc(Cl)c3)(C(F)(F)F)C2)c2ccccc12)NCCCl (centres unmarked) [Compound 10]	at least 50%	at least 80%			≥ 80	≥ 80		at least 80%	at least 50%
CCN(C)C(=O)CNC(=O)c1ccc(C2=NOC(c3cc(Cl)cc(Cl)c3)(C(F)(F)F)C2)c2ccccc12 (centres unmarked) [Compound 7]	at least 50%	at least 80%	at least 80%		≥ 80	≥ 80			at least 50%
CSCCNC(=O)c1ccc(C2=NOC(c3cc(F)cc(C(F)(F)F)c3)(C(F)(F)F)C2)c2ccccc12 (racemic) [Compound 132]	at least 50%	at least 80%		at least 50%	≥ 80	≥ 80	at least 80%	at least 80%	
CSCCNC(=O)c1ccc(C2=NOC(c3cc(Cl)cc(Cl)c3)(C(F)(F)F)C2)c2ccccc12 (centres unmarked) [Compound 17]	at least 50%			at least 50%	≥ 80	≥ 80			at least 50%
CNC(=O)C(C)NC(=O)c1ccc(C2=NOC(c3cc(Cl)cc(C(F)(F)F)c3)(C(F)(F)F)C2)c2ccccc12 (mixture of isomers) [Compound 109]		at least 80%	at least 80%		≥ 80	≥ 80	at least 80%	at least 80%	
